Measurements reported in PubChem BioAssay AID1671195 (Yale University, 2021)
This is an unselected part of about 22,000 reagents tested. Of all reagents, about 1,510 (6.9%) were called active. 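Active includes knockdowns raising or lowering LDL uptake; positive z-scores mean more uptake, negative mean less.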

Assay: 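Regulators of LDL receptor activity judged by labelled LDL uptake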 (primary screen)
System: human Huh7 hepatoma cells
Knock-down reagent: siRNA pool against human genes, 18 nM
Timing: about 2 to 2.5 days of knockdown, then 8 h LDL uptake
Treatment: DiI-labelled LDL at 30 µg/ml for 8 h, in lipoprotein-deficient serum medium
Measurement: 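Per-cell DiI-LDL intensity by automated imaging; well means scaled to the plate median and given as a robust z-score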
Reading the numbers: robust z-score: higher = more LDL uptake after knockdown
Rule for the call: 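Active when two or more replicates show a robust z-score above 2 or below -2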

gene symbol	robust z-score, replicate 1	robust z-score, replicate 2	robust z-score, replicate 3	Outcome
TSPAN33 (tetraspanin 33)	-0.756	-0.97	-1.03	inactive
RPSAP32 (ribosomal protein SA pseudogene 32)	0.704	0.897	0.873	inactive
C10orf62 (chromosome 10 open reading frame 62)	-0.628	1.2	0.63	inactive
ANXA8L1 (annexin A8 like 1)	2.52	0.563	1.39	inactive
PSAT1 (phosphoserine aminotransferase 1)	-0.404	-0.384	0.138	inactive
FIGN (fidgetin, microtubule severing factor)	0.708	1.86	0.729	inactive
APEX1 (apurinic/apyrimidinic endodeoxyribonuclease 1)	2.44	1.16	1.25	inactive
PCDHGC5 (protocadherin gamma subfamily C, 5)	-0.245	-0.34	-0.129	inactive
RANBP17 (RAN binding protein 17)	1.1	1.53	1.54	inactive
MAPK4 (mitogen-activated protein kinase 4)	0.42	0.00945	0.825	inactive
SYT3 (synaptotagmin 3)	-0.746	-1.01	-0.574	inactive

3 entries from above, arranged by “robust z-score, replicate 1”, ascending.
gene symbol	robust z-score, replicate 1	robust z-score, replicate 2	robust z-score, replicate 3	Outcome
PCDHGC5 (protocadherin gamma subfamily C, 5)	-0.245	-0.34	-0.129	inactive
RANBP17 (RAN binding protein 17)	1.1	1.53	1.54	inactive
APEX1 (apurinic/apyrimidinic endodeoxyribonuclease 1)	2.44	1.16	1.25	inactive

The listing continues.
gene symbol	robust z-score, replicate 1	robust z-score, replicate 2	robust z-score, replicate 3	Outcome
GPX8 (glutathione peroxidase 8 (putative))	-2	-1.67	-1.94	inactive
CNGA2 (cyclic nucleotide gated channel subunit alpha 2)	-0.652	0.04	0.0322	inactive
SUPT4H1 (SPT4 homolog, DSIF elongation factor subunit)	-0.627	-0.77	-1.4	inactive
ANGEL1 (angel homolog 1)	0.068	-0.152	-0.901	inactive
TNPO1 (transportin 1)	0.172	-0.0449	-0.0414	inactive
SAT2 (spermidine/spermine N1-acetyltransferase family member 2)	0.69	-2.26	1.59	inactive
MAT2B (methionine adenosyltransferase 2 non-catalytic beta subunit)	1.32	1.59	0.978	inactive
LOC442120 (retired record)	0.348	-0.0646	0.579	inactive
CHD1 (chromodomain helicase DNA binding protein 1)	1.32	-1.38	-0.132	inactive
LOC389077 (retired record)	-0.38	0.073	-0.201	inactive
CCAR1 (cell division cycle and apoptosis regulator 1)	-1.34	-1.14	-0.883	inactive
MAG (myelin associated glycoprotein)	0.164	-0.447	-0.996	inactive
TSLIG3A (tRNA splicing ligase complex subunit 3A)	1.1	1.77	0.993	inactive
SNCG (synuclein gamma)	-0.465	0.491	-0.276	inactive
LOC391241 (retired record)	-0.885	-0.515	-0.991	inactive
KLHL4 (kelch like family member 4)	0.742	-0.777	0.312	inactive
AGGF1 (angiogenic factor with G-patch and FHA domains 1)	-0.343	-0.442	0.993	inactive
